No constants are given. Whether binding was seen depends on the method and setting. Binding seen in cells or lysates may run through a third protein. Some results given as binding are weak or reduced against the parent protein; the word gives no strength. Sequences can lack the tags named with a protein.
Experiments:
[1] = biological target: c-Myc-Gli2 (1-594aa) (human) (UniProt P10070); test: pull-down on anti-FLAG beads, anti-c-myc blot, Expi293F cells
[2] = biological target: c-Myc-Gli2 (418-594aa) (human) (UniProt P10070); test: pull-down on anti-FLAG beads with Kif7(460-600aa), anti-c-myc blot, Expi293F cells
[3] = biological target: c-Myc-Gli2 (418-594aa) ZF4-mut (R550A, K552A, R556A) (human) (UniProt P10070); test: pull-down on anti-FLAG beads, anti-c-myc blot, Expi293F cells
[4] = biological target: c-Myc-Gli2 (418-594aa) (human) (UniProt P10070); test: as above

Amino acid sequences for entries named in this document (tags omitted). A change or cut given only in a name is not applied to a line headed by its entry. Chains listed by the source or under a name are the forms on record and can include a tag or linker. Residues count along the entry.
c-Myc-Gli2 (1-594aa) (P10070, residues 1-594): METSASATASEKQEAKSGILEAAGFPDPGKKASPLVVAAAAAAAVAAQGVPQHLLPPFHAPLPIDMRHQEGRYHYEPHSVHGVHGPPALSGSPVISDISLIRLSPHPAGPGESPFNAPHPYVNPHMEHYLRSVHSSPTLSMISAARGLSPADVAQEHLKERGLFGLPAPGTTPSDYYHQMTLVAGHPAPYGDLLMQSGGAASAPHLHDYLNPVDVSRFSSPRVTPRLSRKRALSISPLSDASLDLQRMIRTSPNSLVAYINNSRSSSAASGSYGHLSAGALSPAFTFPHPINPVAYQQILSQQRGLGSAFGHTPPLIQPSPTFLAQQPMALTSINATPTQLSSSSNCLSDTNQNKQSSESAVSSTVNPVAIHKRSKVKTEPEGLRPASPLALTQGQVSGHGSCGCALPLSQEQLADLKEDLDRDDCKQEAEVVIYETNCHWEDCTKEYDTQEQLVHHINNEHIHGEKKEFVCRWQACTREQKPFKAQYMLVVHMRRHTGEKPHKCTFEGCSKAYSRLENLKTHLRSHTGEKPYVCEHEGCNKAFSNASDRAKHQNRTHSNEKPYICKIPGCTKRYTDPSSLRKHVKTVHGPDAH
c-Myc-Gli2 (418-594aa) (P10070, residues 418-594): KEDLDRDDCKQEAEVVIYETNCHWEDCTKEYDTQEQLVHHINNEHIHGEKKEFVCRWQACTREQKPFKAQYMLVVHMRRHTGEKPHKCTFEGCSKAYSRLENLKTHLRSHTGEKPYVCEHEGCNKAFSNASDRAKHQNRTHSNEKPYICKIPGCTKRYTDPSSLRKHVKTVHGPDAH
c-Myc-Gli2 (418-594aa) ZF4-mut (R550A, K552A, R556A) (P10070, form named): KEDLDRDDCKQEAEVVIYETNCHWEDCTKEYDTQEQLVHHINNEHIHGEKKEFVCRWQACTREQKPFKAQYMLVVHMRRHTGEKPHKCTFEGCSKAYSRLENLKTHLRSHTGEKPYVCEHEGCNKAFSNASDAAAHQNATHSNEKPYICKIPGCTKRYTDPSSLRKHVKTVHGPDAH

Row | binding [1] | binding [4] | Binder | other results
1 | binds |  | FLAG-Kif7-SCC (481-543aa) (protein, not shown: small tags and cut ends) KEDEGAQQLLTLQNQVARLEEENRDFLAALEDAMEQYKLQSDRLREQQEEMVELRLRLELVRP | 
2 |  | binds | FLAG-Kif7-CC (460-600aa) S3-mut2 (E530A, R535A) (protein, not shown: small tags and cut ends) PDSGIESASVEDQAAQGAGGRKEDEGAQQLLTLQNQVARLEEENRDFLAALEDAMEQYKLQSDRLREQQEAMVELALRLELVRPGWGGPRLLNGLPPGSFVPRPHTAPLGGAHAHVLGMVPPACLPGDEVGSEQRGEQVTN | 
3 |  | binds | FLAG-Kif7-CC (460-600aa) S3-mut1 (E526A, E529A) (protein, not shown: small tags and cut ends) PDSGIESASVEDQAAQGAGGRKEDEGAQQLLTLQNQVARLEEENRDFLAALEDAMEQYKLQSDRLRAQQAEMVELRLRLELVRPGWGGPRLLNGLPPGSFVPRPHTAPLGGAHAHVLGMVPPACLPGDEVGSEQRGEQVTN | 

Second part, the binder before the results:

Row | Binder | binding [1] | binding [4] | other results
4 | FLAG-Kif7 (1-543aa) (protein, not shown: small tags and cut ends) MGLEAQRLPGAEEAPVRVALRVRPLLPKELLHGHQSCLQVEPGLGRVTLGRDRHFGFHVVLAEDAGQEAVYQACVQPLLEAFFEGFNATVFAYGQTGSGKTYTMGEASVASLLEDEQGIVPRAMAEAFKLIDENDLLDCLVHVSYLEVYKEEFRDLLEVGTASRDIQLREDERGNVVLCGVKEVDVEGLDEVLSLLEMGNAARHTGATHLNHLSSRSHTVFTVTLEQRGRAPSRLPRPAPGQLLVSKFHFVDLAGSERVLKTGSTGERLKESIQINSSLLALGNVISALGDPQRRGSHIPYRDSKITRILKDSLGGNAKTVMIACVSPSSSDFDETLNTLNYASRAQNIRNRATVNWRPEAERPPEETASGARGPPRHRSETRIIHRGRRAPGPATASAAAAMRLGAECARYRACTDAAYSLLRELQAEPGLPGAAARKVRDWLCAVEGERSALSSASGPDSGIESASVEDQAAQGAGGRKEDEGAQQLLTLQNQVARLEEENRDFLAALEDAMEQYKLQSDRLREQQEEMVELRLRLELVRP | binds |  | 
5 | FLAG-Kif7-CC (460-600aa) (protein, not shown: small tags and cut ends) PDSGIESASVEDQAAQGAGGRKEDEGAQQLLTLQNQVARLEEENRDFLAALEDAMEQYKLQSDRLREQQEEMVELRLRLELVRPGWGGPRLLNGLPPGSFVPRPHTAPLGGAHAHVLGMVPPACLPGDEVGSEQRGEQVTN | binds |  | binding [2]: binds; binding [3]: binds
6 | FLAG-Kif7-CC (460-600aa) S2-mut (E511A, E515A) (protein, not shown: small tags and cut ends) PDSGIESASVEDQAAQGAGGRKEDEGAQQLLTLQNQVARLEEENRDFLAALADAMAQYKLQSDRLREQQEEMVELRLRLELVRPGWGGPRLLNGLPPGSFVPRPHTAPLGGAHAHVLGMVPPACLPGDEVGSEQRGEQVTN |  | binds | 

From patent US20230374088A1
